Results are given in words; binding and its absence hold for the method and conditions named. Binding seen in cells or lysates may run through a third protein. Some entries that bind do so weakly or less than the wild type.

Chains of the proteins cited; added tags and fusions are not shown. Residues count along the entry.
UniProt Q3UMR5, residues 50-350: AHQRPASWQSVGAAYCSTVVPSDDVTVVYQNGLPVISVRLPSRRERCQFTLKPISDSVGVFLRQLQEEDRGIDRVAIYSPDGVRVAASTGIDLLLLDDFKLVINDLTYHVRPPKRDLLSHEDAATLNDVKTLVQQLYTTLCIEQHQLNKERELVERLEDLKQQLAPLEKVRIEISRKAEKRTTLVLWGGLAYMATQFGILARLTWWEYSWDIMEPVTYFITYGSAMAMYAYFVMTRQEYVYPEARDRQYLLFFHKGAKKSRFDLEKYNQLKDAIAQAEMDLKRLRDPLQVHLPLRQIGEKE

The results in this text go back to publication PMC12672999.

In assay [1] the target is T1, medium-chain acyl-CoA dehydrogenase (ACADM) (not stated (endogenous in VSMCs; mouse VSMCs and rat VSMCs were cultured)) (UniProt P45952).
T1 sequence: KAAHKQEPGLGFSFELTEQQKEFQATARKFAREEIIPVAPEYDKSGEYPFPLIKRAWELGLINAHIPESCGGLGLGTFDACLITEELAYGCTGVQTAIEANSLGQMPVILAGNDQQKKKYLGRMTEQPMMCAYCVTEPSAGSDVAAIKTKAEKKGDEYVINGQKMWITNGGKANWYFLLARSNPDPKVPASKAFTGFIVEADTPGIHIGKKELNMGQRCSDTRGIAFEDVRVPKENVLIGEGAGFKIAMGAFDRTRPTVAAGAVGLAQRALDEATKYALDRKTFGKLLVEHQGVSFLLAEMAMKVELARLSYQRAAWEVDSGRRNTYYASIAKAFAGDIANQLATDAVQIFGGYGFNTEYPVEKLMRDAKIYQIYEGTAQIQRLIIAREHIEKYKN
Briefly: co-IP; endogenous proteins from VSMCs lysed in RIPA buffer with 1 mM PMSF; antibodies on A/G magnetic beads; IP: ACADM, IB: MCU and IP: MCU, IB: ACADM; cells treated with cholesterol, with or without MCU inhibitors (Ru360, mitoxantrone).

For assay [2], the target named is mitochondrial calcium uniporter (MCU) (not stated (endogenous in VSMCs; mouse VSMCs and rat VSMCs were cultured)) (UniProt Q3UMR5). The experiment in a line: proximity ligation; Duolink In Situ Red Starter Kit Mouse/Rabbit on fixed, permeabilised VSMCs; antibody ACADM (mouse), antibody MCU (rabbit); cells with or without cholesterol; confocal microscopy, Image J.
Assay [3] has the same target. The experiment in a line: co-IP; endogenous proteins from VSMCs lysed in RIPA buffer with 1 mM PMSF; antibodies on A/G magnetic beads; IP: ACADM, IB: MCU and IP: MCU, IB: ACADM; cells treated with cholesterol, with or without MCU inhibitors (Ru360, mitoxantrone).

Regarding “mitochondrial calcium uniporter (MCU) (from UniProt Q3UMR5 50-350)”, in assay [1], the binding result was “binds”.

B1: medium-chain acyl-CoA dehydrogenase (ACADM) (protein, UniProt P45952 26-421)
chain: T1 sequence
Turning to B1, the binding result in assay [2] and in assay [3] was “binds” each time.
